According to article PMC5130001:
These are yes or no findings as the source states them, for the method shown. In cells and extracts the contact can be indirect. Some binding calls cover weakened binding; strength is not graded here.

Protein sequences, listed by entry. Tags and fused reporters are not part of them. Residues count along the entry.
UniProt P18564, residues 22-788: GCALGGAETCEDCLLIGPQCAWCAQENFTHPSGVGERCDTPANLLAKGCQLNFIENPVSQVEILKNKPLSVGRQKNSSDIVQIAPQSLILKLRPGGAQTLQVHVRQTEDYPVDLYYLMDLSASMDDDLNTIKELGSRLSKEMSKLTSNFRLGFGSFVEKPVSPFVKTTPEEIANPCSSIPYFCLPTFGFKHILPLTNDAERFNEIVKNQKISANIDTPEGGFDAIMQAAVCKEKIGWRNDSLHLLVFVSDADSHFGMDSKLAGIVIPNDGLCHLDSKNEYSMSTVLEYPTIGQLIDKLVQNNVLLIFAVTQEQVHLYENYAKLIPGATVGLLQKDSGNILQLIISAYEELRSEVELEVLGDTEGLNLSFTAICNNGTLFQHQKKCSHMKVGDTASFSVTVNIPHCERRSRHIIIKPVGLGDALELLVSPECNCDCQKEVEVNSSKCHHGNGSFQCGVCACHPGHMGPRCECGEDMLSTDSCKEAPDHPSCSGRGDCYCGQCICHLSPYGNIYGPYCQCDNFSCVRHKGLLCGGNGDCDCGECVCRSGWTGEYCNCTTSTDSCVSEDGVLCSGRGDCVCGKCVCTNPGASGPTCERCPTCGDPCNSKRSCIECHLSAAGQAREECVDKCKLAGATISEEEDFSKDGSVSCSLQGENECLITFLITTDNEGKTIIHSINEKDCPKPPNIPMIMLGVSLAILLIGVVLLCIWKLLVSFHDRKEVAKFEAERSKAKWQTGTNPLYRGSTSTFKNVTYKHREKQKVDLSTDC
UniProt P05556: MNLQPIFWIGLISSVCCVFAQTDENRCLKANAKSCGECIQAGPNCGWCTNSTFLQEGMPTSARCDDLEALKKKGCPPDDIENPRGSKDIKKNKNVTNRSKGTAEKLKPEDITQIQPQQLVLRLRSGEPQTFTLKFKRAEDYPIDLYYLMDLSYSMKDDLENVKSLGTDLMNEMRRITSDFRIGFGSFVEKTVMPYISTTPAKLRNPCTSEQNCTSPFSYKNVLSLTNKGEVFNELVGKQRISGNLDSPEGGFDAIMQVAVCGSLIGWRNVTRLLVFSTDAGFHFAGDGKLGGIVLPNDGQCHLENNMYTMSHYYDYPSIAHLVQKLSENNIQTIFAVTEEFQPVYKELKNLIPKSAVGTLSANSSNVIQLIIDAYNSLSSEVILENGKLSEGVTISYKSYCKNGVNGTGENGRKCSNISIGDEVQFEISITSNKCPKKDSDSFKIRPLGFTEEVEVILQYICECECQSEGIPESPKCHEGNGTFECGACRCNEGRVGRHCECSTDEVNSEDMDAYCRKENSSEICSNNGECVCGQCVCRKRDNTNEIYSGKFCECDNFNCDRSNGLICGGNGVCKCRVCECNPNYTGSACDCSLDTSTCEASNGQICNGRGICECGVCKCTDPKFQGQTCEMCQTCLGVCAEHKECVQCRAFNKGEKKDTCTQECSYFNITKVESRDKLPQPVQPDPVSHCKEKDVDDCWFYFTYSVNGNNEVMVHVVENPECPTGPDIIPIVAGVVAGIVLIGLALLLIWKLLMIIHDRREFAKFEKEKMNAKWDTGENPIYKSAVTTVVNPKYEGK
UniProt Q12791: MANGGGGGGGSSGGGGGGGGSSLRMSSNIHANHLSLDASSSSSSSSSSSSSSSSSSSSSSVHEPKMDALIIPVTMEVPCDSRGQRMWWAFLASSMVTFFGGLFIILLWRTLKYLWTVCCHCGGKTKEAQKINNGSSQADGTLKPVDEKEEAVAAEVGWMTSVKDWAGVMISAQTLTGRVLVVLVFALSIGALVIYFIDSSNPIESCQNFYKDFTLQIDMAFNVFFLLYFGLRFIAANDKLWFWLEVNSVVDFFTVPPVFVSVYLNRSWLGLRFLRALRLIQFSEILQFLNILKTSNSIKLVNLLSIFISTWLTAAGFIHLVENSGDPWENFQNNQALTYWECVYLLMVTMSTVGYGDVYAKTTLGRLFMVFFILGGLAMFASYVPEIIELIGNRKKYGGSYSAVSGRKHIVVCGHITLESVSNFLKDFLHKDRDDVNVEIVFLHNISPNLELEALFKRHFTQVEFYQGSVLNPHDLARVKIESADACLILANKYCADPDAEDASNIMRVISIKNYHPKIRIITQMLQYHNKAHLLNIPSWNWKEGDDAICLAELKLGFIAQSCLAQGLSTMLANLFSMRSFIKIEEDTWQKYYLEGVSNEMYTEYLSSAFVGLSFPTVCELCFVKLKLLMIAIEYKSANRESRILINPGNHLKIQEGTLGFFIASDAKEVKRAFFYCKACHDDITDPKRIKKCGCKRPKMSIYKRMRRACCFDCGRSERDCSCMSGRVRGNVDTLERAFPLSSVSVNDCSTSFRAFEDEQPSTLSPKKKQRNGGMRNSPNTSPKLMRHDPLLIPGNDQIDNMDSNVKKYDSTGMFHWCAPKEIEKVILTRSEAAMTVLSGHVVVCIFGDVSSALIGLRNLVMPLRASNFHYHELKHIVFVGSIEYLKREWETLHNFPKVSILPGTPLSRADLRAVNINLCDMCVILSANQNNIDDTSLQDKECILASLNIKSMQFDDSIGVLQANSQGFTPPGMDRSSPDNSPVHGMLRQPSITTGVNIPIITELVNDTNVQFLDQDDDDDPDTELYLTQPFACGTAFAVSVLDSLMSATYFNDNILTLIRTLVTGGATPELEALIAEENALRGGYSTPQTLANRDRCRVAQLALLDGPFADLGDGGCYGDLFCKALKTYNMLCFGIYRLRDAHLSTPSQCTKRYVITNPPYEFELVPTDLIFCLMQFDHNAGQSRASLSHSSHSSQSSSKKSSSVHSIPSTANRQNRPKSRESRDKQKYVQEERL
UniProt Q05397: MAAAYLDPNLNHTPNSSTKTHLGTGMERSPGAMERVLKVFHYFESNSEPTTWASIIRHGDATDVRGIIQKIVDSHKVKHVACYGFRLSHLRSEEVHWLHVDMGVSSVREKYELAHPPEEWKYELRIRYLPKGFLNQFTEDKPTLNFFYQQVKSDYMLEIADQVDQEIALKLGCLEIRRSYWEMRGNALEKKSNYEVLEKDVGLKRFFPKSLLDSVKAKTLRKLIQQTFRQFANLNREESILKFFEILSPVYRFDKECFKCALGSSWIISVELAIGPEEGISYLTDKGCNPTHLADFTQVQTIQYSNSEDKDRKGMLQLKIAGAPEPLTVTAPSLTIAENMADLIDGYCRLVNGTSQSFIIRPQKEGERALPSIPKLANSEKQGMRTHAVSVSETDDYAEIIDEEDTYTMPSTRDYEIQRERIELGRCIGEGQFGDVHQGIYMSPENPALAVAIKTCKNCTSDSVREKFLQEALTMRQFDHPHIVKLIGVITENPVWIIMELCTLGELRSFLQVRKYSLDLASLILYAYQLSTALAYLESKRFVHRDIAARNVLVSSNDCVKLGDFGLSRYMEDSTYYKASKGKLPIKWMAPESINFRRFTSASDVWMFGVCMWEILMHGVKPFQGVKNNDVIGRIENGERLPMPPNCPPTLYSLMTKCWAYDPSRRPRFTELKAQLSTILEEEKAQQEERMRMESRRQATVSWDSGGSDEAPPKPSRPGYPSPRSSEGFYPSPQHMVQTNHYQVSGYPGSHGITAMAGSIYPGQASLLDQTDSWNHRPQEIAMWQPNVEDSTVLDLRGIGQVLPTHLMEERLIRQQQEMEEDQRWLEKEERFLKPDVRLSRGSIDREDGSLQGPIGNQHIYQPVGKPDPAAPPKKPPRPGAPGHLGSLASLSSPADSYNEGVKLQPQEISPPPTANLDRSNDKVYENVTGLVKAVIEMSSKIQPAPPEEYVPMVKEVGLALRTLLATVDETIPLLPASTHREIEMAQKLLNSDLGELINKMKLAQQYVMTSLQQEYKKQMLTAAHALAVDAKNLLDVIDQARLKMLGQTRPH

Key:
Experiment in all cases: co-IP; Pierce classic IP kit; protein extracts of PC3 cells (transfected with BKCa or vector, or infected with BK-shRNA or SC-shRNA; vitronectin stimulation in Supplementary Figure 4); immune complexes analysed by western blot; beads without protein input as control
[1] = target: β6 integrin (human (endogenous in PC3)) (UniProt P18564)
[2] = target: β1 integrin (human (endogenous in PC3)) (UniProt P05556)
[3] = target: BKCa, large conductance calcium activated potassium channel (human (endogenous in PC3)) (UniProt Q12791)

Substance	binding [1]	binding [2]	binding [3]
BKCa, large conductance calcium activated potassium channel (from UniProt Q12791 1-1236)	binds weakly	binds weakly	–
focal adhesion kinase (FAK) (from UniProt Q05397 1-1052)	–	–	binds
